Measured values as given in PMC5931981, “Identification of a pyrophosphate-dependent kinase and its donor selectivity determinants” (Nature Communications, 2018).
No constants are given. Whether binding was seen depends on the method and setting.

Biological target: TM0415 from the hyperthermophilic bacterium Thermotoga maritima (Thermotoga maritima) (UniProt Q9WYP6)
Assay: SEC; size exclusion chromatography of TM0415 in solution (Supplementary Fig. 3b); both purified

binding: no binding
B1: TM0415 from the hyperthermophilic bacterium Thermotoga maritima (enzyme, UniProt Q9WYP6 1-286)
chain: MITFIGHVSKDVNVVDGKREIAYGGGVVMGAITSSLLGVKTKVITKCTREDVSKFSFLRDNGVEVVFLKSPRTTSIENRYGSDPDTRESFLISAADPFTESDLAFIEGEAVHINPLWYGEFPEDLIPVLRRKVMFLSADAQGFVRVPENEKLVYRDWEMKEKYLKYLDLFKVDSREAETLTGTNDLRESCRIIRSFGAKIILATHASGVIVFDGNFYEASFRSWSLEGRTGRGDTCTAAFLVGFVFKKMSIEKATKFAAAVTSVKMRHPGPLRREDLEAISGDQYF
